PubChem BioAssay AID1224829 – NIAID, 2016

Test: 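Genes needed for LPS-driven NF-kappaB p65 nuclear entry in mouse macrophages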 (follow-up of hits)
System: mouse RAW264.7 G9 macrophage reporter cells
Reagents: single siRNA against mouse genes, 100 nM
Duration: 2 days of siRNA knock-down, then 40 min of LPS before fixing
Challenge: LPS (Salmonella minnesota R595) at 10 ng/ml
Measured: 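High-content images after 40 min LPS exposure; GFP-p65 nucleus to surrounding ring signal ratio, normalised to plate median and non-targeting control wells, expressed as z-score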
Reading the numbers: p65 translocation z-score: higher = more nuclear NF-kappaB p65 after LPS
Rule for the call: 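An siRNA is called active when the mean z-score of its two replicates is above 2 or below -2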
Calls: active = changed p65 translocation (either direction); inactive = no clear change
The whole screen tested about 3,800 reagents; shown is a part drawn at random. 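Calls cover raised and lowered translocation; gene median uses one vendor's three siRNAs; qiagen siRNAs acted more weakly than ambion siRNAs.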 The numbers tell different reagents against one gene apart. Further read-outs or replicates are left out here.

For E130006D01Rik #1, siRNA vendor or control pool ambion single siRNA, what was measured?
p65 translocation z-score, replicate mean: -2.63; activity call: active

With E130006D01Rik #2, siRNA vendor or control pool ambion single siRNA, what does the deposit list?
p65 translocation z-score, replicate mean: -3.34; activity call: active

For E130006D01Rik #3, siRNA vendor or control pool ambion single siRNA, what was measured?
p65 translocation z-score, replicate mean: 0.216; activity call: inactive

What is on record for E130006D01Rik #4, siRNA vendor or control pool qiagen single siRNA?
p65 translocation z-score, replicate mean: 1.33; activity call: inactive

With E130006D01Rik #5, siRNA vendor or control pool qiagen single siRNA, what was measured?
p65 translocation z-score, replicate mean: -3.63; activity call: active

For E130006D01Rik #6, siRNA vendor or control pool qiagen single siRNA, how do the results read?
p65 translocation z-score, replicate mean: -0.881; activity call: inactive

For Ndrg4 #1, siRNA vendor or control pool ambion single siRNA, what was measured?
p65 translocation z-score, replicate mean: 1.63; activity call: inactive

What did the screen give for Ndrg4 #2, siRNA vendor or control pool ambion single siRNA?
p65 translocation z-score, replicate mean: -1.26; activity call: inactive

For Ndrg4 #3, siRNA vendor or control pool ambion single siRNA, what does the deposit list?
p65 translocation z-score, replicate mean: -1.85; activity call: inactive

For Ndrg4 #4, siRNA vendor or control pool qiagen single siRNA, what was measured?
p65 translocation z-score, replicate mean: 1.81; activity call: inactive

With Ndrg4 #5, siRNA vendor or control pool qiagen single siRNA, how do the results read?
p65 translocation z-score, replicate mean: 4.81; activity call: active

Which result is listed for Ndrg4 #6, siRNA vendor or control pool qiagen single siRNA?
p65 translocation z-score, replicate mean: -1.6; activity call: inactive

In a second layout: results already given.
| gene knocked down | siRNA no. | siRNA vendor or control pool | p65 translocation z-score, replicate mean | activity call |
| --- | --- | --- | --- | --- |
| Ndrg4 | 5 | qiagen single siRNA | 4.81 | active |
| Ndrg4 | 6 | qiagen single siRNA | -1.6 | inactive |
